Publication PMC5309220, “Screening for Small Molecule Inhibitors of Statin-Induced APP C-terminal Toxic Fragment Production” (Frontiers in Pharmacology, 2017)

Assays:
[1] = test system: cerivastatin-induced APPΔC31 in I5 mouse hippocampal slice cultures; assay: Ex vivo organotypic hippocampal slice cultures, APPΔC31 ELISA; settings: 72 h, read-out: inhibition of APPΔC31 production
[2] = test system: cerivastatin-induced APPΔC31 in CHO-7W cells; assay: APPΔC31 AlphaLISA dose-response, cerivastatin-induced; format: cell-based, Chinese hamster; settings: Cricetulus griseus, (A) AlphaLISA, 24 h, read-out: IC50 (A), APPΔC31 inhibition
Method: The APPΔC31 AlphaLISA assay (Figures 2C–E) was run directly in the plate with the cell lysate as described above in “AlphaLISA to detect APPΔC31.” APPΔC31 levels were measured using the Envision plate reader and data were normalized to DMSO (100% APPΔC31 production) and Q-VD-OPh (MP Biomedicals) pan-caspase inhibitor at 30 μM (0%); these controls were present on each plate. In addition, some compounds of interest were further analyzed in a dose-response curve to determine IC50 values.
Since APPΔC31 is generated by caspase cleavage and we found some MEK inhibitors in our HTS, select caspase and MEK inhibitors were also tested for inhibition of cerivastatin-induced APPΔC31 in CHO-7W cells for 24 h using dose-response curves determined by AlphaLISA (Supplementary Figure S3B). […] The broad-spectrum pan-caspase inhibitor Q-VD-OPh served as the positive control. […] The MEK inhibitor SL327 was ineffective.
Supplementary file Data_Sheet_1.docx: FIGURE S3 Dose-response curves of APPΔC31 inhibition by thapsigargin and select caspase and MEK inhibitors (A) CHO-7W cells were treated with 10 μM cerivastatin plus increasing doses of thapsigargin for 24 h. Lysates were prepared and APPΔC31 determined by ELISA. (B) CHO-7W cells were treated with 10 μM cerivastatin plus increasing doses of caspase and MEK inhibitors for 24 h. Lysates were prepared and APPΔC31 determined by AlphaLISA. […]

[3] = test system: cerivastatin-induced APPΔC31 production in CHO-7W cells; assay: APPΔC31 ELISA validation assay, cerivastatin-induced; format: cell-based, Chinese hamster; settings: 10 μM cerivastatin, 24 h, test concentration not given
Method: The APPΔC31 ELISA developed in partnership with Enzo Life Sciences (ADI-900-227) follows a standard sandwich ELISA design wherein a monoclonal N-terminal APP-specific antibody is used to coat the wells of the microtiter plate (capture antibody) and the anti-APPΔC31 cleavage site-specific polyclonal antibody serves as the detection antibody. An HRP-conjugated secondary antibody is then added and a colorimetric signal generated by enzymatic conversion of the tetramethylbenzidine (TMB) substrate. Protein levels were first determined using a colorimetric coomassie assay (Coomassie Plus, Thermo).
A subset of hits from our HTS was validated in a secondary assay. […] Thapsigargin also acts as a sarco/endoplasmic reticulum calcium ATPase (SERCA) inhibitor. Therefore, another SERCA inhibitor, 2,5-Di-tert-butylhydroquinone, was also added to the testing. In this secondary assay, CHO-7W cells were cultured as described above and plated into 24-well dishes at ∼200K/well. […] These hits were selected for their potency in primary screen, their structural features, their known activities, and availability of compound for additional testing. There were cerivastatin-only (negative control), + QVD-OPh (positive control), and for viability, vehicle-only (negative) controls. Cells were harvested by removing the media to a tube, adding […] trypsin to detach cells then neutralizing with media. […]

[4] = PAMPA / immobilized artificial membrane (IAM.PC.DD2) chromatography; format: in vitro ADME; settings: IAM.PC.DD2 column

KIAM (IAM capacity factor) ([4]; water/methanol gradient): 3.1 | KIAM/MW^4 x 10^10 ([4]; correlation of Yoon et al. (2006)): 1.85
Compound: O=C(CCCN1CCC2(CC1)C(=O)NCN2c1ccccc1)c1ccc(F)cc1 [Spiperone]
inhibition at 10 µM [1]: ~14% | IC50 [2]: 4.6 µM | APPΔC31 Inh. (mean %) [3]: 41%
